The labels stand for the following.
B1: p-TBK1 (protein, UniProt Q9UHD2 1-729)
chain: MQSTSNHLWLLSDILGQGATANVFRGRHKKTGDLFAIKVFNNISFLRPVDVQMREFEVLKKLNHKNIVKLFAIEEETTTRHKVLIMEFCPCGSLYTVLEEPSNAYGLPESEFLIVLRDVVGGMNHLRENGIVHRDIKPGNIMRVIGEDGQSVYKLTDFGAARELEDDEQFVSLYGTEEYLHPDMYERAVLRKDHQKKYGATVDLWSIGVTFYHAATGSLPFRPFEGPRRNKEVMYKIITGKPSGAISGVQKAENGPIDWSGDMPVSCSLSRGLQVLLTPVLANILEADQEKCWGFDQFFAETSDILHRMVIHVFSLQQMTAHKIYIHSYNTATIFHELVYKQTKIISSNQELIYEGRRLVLEPGRLAQHFPKTTEENPIFVVSREPLNTIGLIYEKISLPKVHPRYDLDGDASMAKAITGVVCYACRIASTLLLYQELMRKGIRWLIELIKDDYNETVHKKTEVVITLDFCIRNIEKTVKVYEKLMKINLEAAELGEISDIHTKLLRLSSSQGTIETSLQDIDSRLSPGGSLADAWAHQEGTHPKDRNVEKLQVLLNCMTEIYYQFKKDKAERRLAYNEEQIHKFDKQKLYYHATKAMTHFTDECVKKYEAFLNKSEEWIRKMLHLRKQLLSLTNQCFDIEEEVSKYQEYTNELQETLPQKMFTASSGIKHTMTPIYPSSNTLVEMTLGMKKLKEEMEGVVKELAENNHILERFGSLTMDGGLRNVDCL
modifications: phosphorylated (p-TBK1); site not given

The chains behind the UniProt entries cited, without tags or fusion partners.
UniProt Q07864: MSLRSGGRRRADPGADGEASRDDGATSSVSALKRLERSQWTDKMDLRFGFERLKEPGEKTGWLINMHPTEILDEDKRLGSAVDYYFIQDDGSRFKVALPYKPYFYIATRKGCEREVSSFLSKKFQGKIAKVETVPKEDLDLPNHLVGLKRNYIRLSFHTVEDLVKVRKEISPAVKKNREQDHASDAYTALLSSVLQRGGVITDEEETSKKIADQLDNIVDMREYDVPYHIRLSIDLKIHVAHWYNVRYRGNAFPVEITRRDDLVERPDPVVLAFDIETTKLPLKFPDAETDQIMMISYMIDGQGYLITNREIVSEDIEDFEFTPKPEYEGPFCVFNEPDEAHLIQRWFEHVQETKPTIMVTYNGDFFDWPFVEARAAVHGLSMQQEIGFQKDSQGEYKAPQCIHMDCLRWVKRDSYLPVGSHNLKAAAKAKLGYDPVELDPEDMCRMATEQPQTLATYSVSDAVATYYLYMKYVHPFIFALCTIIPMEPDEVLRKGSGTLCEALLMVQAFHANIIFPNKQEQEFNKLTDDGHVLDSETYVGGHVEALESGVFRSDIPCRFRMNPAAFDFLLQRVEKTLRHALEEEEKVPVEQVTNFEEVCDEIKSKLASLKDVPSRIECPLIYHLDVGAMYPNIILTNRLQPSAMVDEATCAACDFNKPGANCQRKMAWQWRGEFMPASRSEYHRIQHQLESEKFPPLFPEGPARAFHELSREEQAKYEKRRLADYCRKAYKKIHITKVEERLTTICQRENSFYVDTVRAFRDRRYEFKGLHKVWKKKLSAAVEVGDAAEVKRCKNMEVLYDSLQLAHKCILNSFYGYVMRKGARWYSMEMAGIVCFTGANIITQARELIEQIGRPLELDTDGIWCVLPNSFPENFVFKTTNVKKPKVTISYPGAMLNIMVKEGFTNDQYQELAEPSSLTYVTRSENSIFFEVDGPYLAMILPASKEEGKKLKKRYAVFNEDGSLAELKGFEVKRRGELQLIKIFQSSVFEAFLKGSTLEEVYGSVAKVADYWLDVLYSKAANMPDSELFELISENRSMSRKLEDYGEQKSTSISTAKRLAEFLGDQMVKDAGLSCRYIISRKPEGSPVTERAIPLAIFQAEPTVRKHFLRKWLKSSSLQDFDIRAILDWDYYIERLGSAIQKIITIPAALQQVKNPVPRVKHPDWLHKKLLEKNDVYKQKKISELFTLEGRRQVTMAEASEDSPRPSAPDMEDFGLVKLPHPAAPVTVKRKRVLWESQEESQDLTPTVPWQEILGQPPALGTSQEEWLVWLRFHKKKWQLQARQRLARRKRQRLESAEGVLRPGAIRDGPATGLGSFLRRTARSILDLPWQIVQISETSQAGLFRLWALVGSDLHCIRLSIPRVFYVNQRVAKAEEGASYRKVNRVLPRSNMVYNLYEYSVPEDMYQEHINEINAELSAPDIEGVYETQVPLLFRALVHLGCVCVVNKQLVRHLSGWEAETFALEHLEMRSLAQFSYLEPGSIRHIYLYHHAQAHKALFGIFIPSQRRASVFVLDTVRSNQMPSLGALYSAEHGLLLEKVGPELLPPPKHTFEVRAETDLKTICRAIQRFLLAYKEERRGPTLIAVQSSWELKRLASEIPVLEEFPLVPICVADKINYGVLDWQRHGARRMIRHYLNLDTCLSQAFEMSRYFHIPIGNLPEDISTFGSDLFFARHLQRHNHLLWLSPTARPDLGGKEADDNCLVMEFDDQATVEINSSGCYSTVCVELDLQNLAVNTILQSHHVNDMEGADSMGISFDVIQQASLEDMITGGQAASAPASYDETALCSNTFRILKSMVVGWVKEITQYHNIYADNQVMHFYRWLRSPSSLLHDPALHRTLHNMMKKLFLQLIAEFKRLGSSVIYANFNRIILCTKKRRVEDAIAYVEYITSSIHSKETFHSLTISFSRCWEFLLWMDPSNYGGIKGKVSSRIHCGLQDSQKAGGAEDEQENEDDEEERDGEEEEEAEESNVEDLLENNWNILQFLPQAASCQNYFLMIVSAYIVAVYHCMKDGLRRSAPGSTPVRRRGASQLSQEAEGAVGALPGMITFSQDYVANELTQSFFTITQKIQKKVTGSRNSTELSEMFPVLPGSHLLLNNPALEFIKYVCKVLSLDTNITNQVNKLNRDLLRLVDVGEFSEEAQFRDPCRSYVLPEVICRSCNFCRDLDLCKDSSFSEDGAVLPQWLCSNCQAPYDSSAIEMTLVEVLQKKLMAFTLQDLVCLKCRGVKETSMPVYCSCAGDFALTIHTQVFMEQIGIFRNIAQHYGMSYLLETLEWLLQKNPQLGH
UniProt P09874: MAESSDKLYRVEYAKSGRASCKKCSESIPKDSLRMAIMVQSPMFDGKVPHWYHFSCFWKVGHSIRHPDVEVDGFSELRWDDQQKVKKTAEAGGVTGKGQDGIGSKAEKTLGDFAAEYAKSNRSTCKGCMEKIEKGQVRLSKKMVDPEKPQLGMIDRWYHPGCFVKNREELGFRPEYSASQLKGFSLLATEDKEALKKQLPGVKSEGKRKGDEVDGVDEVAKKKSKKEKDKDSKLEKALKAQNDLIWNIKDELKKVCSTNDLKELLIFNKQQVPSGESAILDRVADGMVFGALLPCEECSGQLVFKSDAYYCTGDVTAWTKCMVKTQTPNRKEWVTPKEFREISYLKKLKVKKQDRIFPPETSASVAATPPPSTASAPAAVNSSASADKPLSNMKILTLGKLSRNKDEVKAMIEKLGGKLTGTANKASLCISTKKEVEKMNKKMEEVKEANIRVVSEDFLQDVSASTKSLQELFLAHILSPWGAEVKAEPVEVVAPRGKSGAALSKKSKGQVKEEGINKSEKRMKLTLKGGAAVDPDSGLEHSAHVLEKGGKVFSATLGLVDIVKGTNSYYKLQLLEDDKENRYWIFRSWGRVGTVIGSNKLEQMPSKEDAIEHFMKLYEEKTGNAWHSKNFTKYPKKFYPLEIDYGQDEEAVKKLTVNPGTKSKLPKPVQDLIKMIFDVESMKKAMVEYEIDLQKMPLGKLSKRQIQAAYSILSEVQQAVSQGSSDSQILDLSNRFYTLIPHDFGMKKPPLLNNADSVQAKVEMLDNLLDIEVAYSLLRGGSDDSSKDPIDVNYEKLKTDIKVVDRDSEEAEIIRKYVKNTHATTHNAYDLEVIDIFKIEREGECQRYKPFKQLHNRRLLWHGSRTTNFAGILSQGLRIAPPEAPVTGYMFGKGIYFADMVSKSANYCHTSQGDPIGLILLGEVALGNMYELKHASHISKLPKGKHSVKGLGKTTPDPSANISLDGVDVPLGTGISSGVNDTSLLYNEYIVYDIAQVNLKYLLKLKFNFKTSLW
UniProt Q92878: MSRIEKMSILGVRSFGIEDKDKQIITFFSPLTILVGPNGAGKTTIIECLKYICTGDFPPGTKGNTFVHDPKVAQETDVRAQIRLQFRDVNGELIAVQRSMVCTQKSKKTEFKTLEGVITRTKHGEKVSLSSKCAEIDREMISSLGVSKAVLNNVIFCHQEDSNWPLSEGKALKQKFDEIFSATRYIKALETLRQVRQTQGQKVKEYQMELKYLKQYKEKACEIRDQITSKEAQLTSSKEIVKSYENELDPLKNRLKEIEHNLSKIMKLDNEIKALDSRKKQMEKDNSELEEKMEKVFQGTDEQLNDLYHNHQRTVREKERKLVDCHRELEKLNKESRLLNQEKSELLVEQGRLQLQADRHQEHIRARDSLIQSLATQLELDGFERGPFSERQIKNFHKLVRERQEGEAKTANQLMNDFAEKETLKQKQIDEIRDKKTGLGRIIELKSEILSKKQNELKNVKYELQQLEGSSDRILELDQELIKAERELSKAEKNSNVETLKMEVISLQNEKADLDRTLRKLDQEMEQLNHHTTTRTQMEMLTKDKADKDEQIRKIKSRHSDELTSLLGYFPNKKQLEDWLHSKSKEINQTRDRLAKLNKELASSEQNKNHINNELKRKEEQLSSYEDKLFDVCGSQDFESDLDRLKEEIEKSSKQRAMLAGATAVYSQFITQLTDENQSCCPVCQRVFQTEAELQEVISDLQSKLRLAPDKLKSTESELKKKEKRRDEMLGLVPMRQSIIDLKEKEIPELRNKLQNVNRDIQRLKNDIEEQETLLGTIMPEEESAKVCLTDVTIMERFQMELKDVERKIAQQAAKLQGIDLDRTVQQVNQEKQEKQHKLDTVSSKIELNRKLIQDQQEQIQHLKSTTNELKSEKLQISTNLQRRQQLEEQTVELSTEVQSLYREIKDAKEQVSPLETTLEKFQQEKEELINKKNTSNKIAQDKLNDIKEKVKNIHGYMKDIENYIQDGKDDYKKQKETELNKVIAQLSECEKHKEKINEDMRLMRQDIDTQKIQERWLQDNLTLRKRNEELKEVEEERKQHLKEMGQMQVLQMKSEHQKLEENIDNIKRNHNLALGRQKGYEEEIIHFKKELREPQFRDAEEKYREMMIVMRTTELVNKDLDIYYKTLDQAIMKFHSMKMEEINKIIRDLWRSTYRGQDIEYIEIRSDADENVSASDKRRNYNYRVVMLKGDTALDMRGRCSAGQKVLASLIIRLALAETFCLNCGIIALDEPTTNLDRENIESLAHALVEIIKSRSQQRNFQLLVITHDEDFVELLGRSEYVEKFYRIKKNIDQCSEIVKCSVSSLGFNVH
UniProt Q86WV6: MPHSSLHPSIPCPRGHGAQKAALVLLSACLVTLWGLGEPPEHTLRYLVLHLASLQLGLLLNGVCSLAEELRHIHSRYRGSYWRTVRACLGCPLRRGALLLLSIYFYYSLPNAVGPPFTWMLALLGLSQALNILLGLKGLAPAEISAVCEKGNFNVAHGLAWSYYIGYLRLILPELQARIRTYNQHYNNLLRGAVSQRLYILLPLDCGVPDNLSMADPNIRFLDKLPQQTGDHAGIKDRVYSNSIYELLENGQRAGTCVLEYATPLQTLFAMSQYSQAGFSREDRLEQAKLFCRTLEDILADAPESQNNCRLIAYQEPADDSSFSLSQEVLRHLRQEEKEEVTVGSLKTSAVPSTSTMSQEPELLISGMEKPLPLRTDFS

Results are given in words; binding and its absence hold for the method and conditions named. Binding seen in cells or lysates may run through a third protein. Some entries that bind do so weakly or less than the wild type.

This experiment has as its target DNA polymerase ε (POLE) (human (endogenous in human EC cells)) (UniProt Q07864). Description: co-IP; cells lysed on ice 30 min and sonicated; supernatant incubated with specific antibodies and protein A/G agarose beads at 4 °C overnight; washed three times; western blotting; cells without or with etoposide treatment. (A western blot detects proteins with antibodies after separation by electrophoresis.)
Take PARP1 (from UniProt P09874 1-1014): the binding entry is recorded as “binds”.

Turning to RAD50 (from UniProt Q92878 1-1312), the binding result is “binds”.

As to p-STING (from UniProt Q86WV6 1-379), the binding entry is “binds”.

On to B1, for which the binding result is on record as “binds”.

(Values after article PMC10796917.)
